# According to PubChem BioAssay AID493014 (National Center for Advancing Translational Sciences (NCATS), 2011):
# The other results are listed elsewhere or left out. These are further read-outs of the screen, such as a control signal, another cell line or another target. No call is given for them. Compounds called inactive in the main read-out are mostly missing here. Potencies come from curve fits of mixed quality, noted in brackets.
# Experiment: qHTS Assay to Find Inhibitors of Chronic Active B-Cell Receptor Signaling
# Conditions: ABC-DLBCL IkBa-CBG/CBR reporter, luminescence ratio (green luciferase fused to IkBa over red control in TMD8 lymphoma cells), 4 h
# Outline: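 TMD8 ABC-DLBCL cells carrying doxycycline-inducible green luciferase fused to IkappaBalpha plus unfused red luciferase were exposed to compounds (up to 46 uM) for 4 hrs at 37C. Activity came from the overlap-corrected green/red luminescence ratio.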
# [1] = measured here: CBR red luminescence, cell number
# [2] = measured here: IkBa-CBG green luminescence
Compound,AC50 [1],AC50 [2]
COc1ccc(/C=C2\Sc3ccc(C(=O)N4CCc5ccccc5C4)cc3N(C)C2=O)cc1,"29.1 µM [rising, single point]",–
COc1cccc(C(NC(=O)c2ccccc2F)NC(=O)c2ccccc2F)c1,"8.91 µM [rising, partial curve]",–
CCN(CC)S(=O)(=O)c1ccc(NC(=O)COC(=O)c2ccc(-n3nc(C)cc3C)cc2)cc1,"4.11 µM [falling, single point]",–
CC(C)N(C(=O)c1sc2cc([N+](=O)[O-])ccc2c1Cl)C(C)C,"4.61 µM [falling, single point]",–
O=C(O)C1C2C=CC(C2)C1C(=O)Nc1cccc(C(=O)N2CCCCC2)c1 (configuration not stated),"0.184 µM [falling, full curve, poor fit]",–
C/C(=N\Nc1ccc(F)cc1F)c1cccs1,"15.8 µM [rising, single point]",–
Cn1c(=O)c2c(ncn2CCC(=O)N/N=C/c2ccccc2)n(C)c1=O,"35.5 µM [rising, single point]",–
O=C(c1ccc(Cl)cc1)C(CN1CCCC1)c1ccccc1 (configuration not stated),"12.6 µM [falling, partial curve]",–
COc1cc(CNCCNC(=O)c2nonc2N)ccc1OCc1ccc(Cl)cc1,"35.5 µM [falling, single point]",–
COc1cc(S(=O)(=O)N2CCN=C2c2ccccc2)ccc1Cl,"35.5 µM [rising, single point]",–
O=C(NCc1ccc(Cl)cc1)C1CCN(c2nnc(N3CCCC3=O)s2)CC1,"35.5 µM [rising, single point]",–
CCC(C)NC(=O)CSc1nnc(-c2cc(-c3ccc(C)cc3)nc3ccccc23)n1N (configuration not stated),"23.1 µM [falling, single point]",–
Cc1ccc(C2=NOC(=O)/C2=C\C=C\c2ccccc2)cc1,"11.2 µM [falling, single point]",–
Cc1cccc(NC(=O)COC(=O)[C@@H]2CCCN2C(=O)c2cccs2)c1,"5.17 µM [rising, full curve, poor fit]",–
O=C(O)CSc1nc2ccccc2n1C1CCCCC1,"35.5 µM [rising, single point]",–
CC(C)CCNC(=O)c1cc2c(=O)[nH]c3ccccc3c2s1,"0.0891 µM [rising, full curve, poor fit]",–
Cc1cc2oc(=O)c(CC(=O)NCCCN(C)C)c(C)c2c2occ(C(C)(C)C)c12,"17.8 µM [falling, partial curve, poor fit]",–
CCC(C)c1ccccc1N1CC(C(=O)Nc2ccc(N3CCOCC3)cc2)CC1=O (configuration not stated),"6.51 µM [rising, single point]",–
COC(=O)c1cccc(-n2sc3ccccc3c2=O)c1,"16.4 µM [falling, partial curve]","32.6 µM [falling, partial curve, poor fit]"
COc1ccccc1NC(=O)C(=O)c1cn(CC(=O)N2CCCC2)c2ccccc12,"0.282 µM [falling, full curve]",–
O=C(CN1CCN(Cc2ccc3c(c2)OCO3)CC1)Nc1ccc2c(c1)OCCO2,"13 µM [rising, partial curve, poor fit]",–

Compound,AC50 [1],AC50 [2]
O=C(CSCc1ccco1)N1CCc2ccccc21,"0.447 µM [rising, full curve]",–
O=C(/C=C/c1cccs1)Nc1ccc(Br)cn1,"16.4 µM [falling, partial curve]","20.6 µM [falling, single point]"
CCC(C)Sc1nc2c([nH]c3ccccc32)c(=O)n1C (configuration not stated),"6.51 µM [rising, full curve, poor fit]",–
Cn1c(SCC(=O)OCc2ccccc2)nnc1-c1ccco1,"2.31 µM [falling, full curve]","2.91 µM [rising, full curve, poor fit]"
Cc1csc(SCC(=O)NC(C)C2CC3CCC2C3)n1 (configuration not stated),"13 µM [rising, partial curve]",–
O=C(N/N=C/c1ccccn1)c1cc(C2CC2)[nH]n1,"25.1 µM [falling, single point]",–
CC(=O)Nc1ccc(Nc2nc(-c3sc(NC(C)=O)nc3C)cs2)cc1,"11.2 µM [falling, partial curve]",–
O=C(Nc1ccc(O)cc1C(=O)O)c1ccc2c(c1)C(=O)N(Cc1ccco1)C2=O,"29.1 µM [falling, single point]",–
O=[N+]([O-])c1cccc(OCC(O)CN2CCN(S(=O)(=O)c3cc(Cl)ccc3Cl)CC2)c1 (configuration not stated),"17.8 µM [falling, partial curve, poor fit]",–
CCn1c(C)c(/C=N/Nc2nc3ccccc3s2)c2ccccc21,"7.08 µM [falling, partial curve, poor fit]",–
CC1(C)CC(=O)C=C(Nc2ccccc2O)C1,"2.51 µM [falling, partial curve, poor fit]",–
Cc1csc(NC(=O)C2CCCCN2S(=O)(=O)c2ccccc2)n1 (configuration not stated),"31.6 µM [rising, single point]",–
O=C(c1ccco1)N1CCN=C1SCc1cccc(F)c1,"11.6 µM [falling, partial curve, poor fit]",–
Cc1ccc(-c2nnc(Cc3ccc(Cl)cc3)o2)cc1,"6.51 µM [falling, single point]",–
COC(=O)c1ccc(NC(=S)NCCc2cccc(C)c2)cc1,"2.06 µM [falling, full curve]",–
COc1cc(OC)c(C2=NOC(C(=O)Nc3c(C)nn(CC(=O)N4CCCC4)c3C)C2)cc1Cl (configuration not stated),"10 µM [rising, partial curve]",–
COc1ccc(Nc2nnc(Cc3ccncc3)c3ccccc23)c(OC)c1,"4.47 µM [falling, partial curve]",–
Clc1ccccc1-c1nnc2sc(-c3cccs3)nn12,"14.1 µM [falling, single point]",–
O=C(N/N=C/c1cccc2ccccc12)c1cccc(F)c1,"11.2 µM [falling, partial curve, poor fit]",–
COC(=O)c1c(-c2cccc3ccccc23)csc1NC(=O)Cc1ccc(OC)c(OC)c1,"13 µM [falling, partial curve, poor fit]",–
N#C/C(=C\c1ccc(OCc2ccc(F)cc2)cc1)C(=O)Nc1cccc(C(=O)O)c1,"4.47 µM [rising, partial curve, poor fit]",–

Compound,AC50 [1],AC50 [2]
COc1ccc(C(CNC(=O)COc2ccccc2OC)N(C)C)cc1OC (configuration not stated),"35.5 µM [rising, single point]",–
O=C(CCSc1nnc(-c2ccncc2)o1)Nc1ccc(Cl)cc1,"3.66 µM [rising, full curve, poor fit]",–
CC(=O)C1=C(C)Nc2ncnn2C1c1ccc(C)cc1 (configuration not stated),"5.01 µM [rising, partial curve]",–
CCOC(=O)C1CCCN(c2ncnc3c2oc2ccccc23)C1 (configuration not stated),–,"14.1 µM [falling, partial curve, poor fit]"
COc1ccc(OC)c(S(=O)(=O)Nc2cc3c4c(c2)CCC(=O)N4CCC3)c1,–,"11.6 µM [falling, partial curve, poor fit]"
COc1ccc(CCCC(=O)N/N=C/c2cccc(OC)c2O)cc1C,"6.51 µM [rising, single point]","13 µM [falling, partial curve]"
O=C(/C=C/c1cccc([N+](=O)[O-])c1)NCCN1C(=O)S/C(=C\c2cccnc2)C1=O,"17.8 µM [falling, partial curve, poor fit]",–
O=C(Nc1nnc(-c2ccco2)o1)c1ccc(Cl)cc1,"10 µM [falling, partial curve]",–
O=[N+]([O-])c1cccc(S(=O)(=O)N2CCCC2)c1,"0.82 µM [rising, full curve, poor fit]",–
Cc1ccc(NCC(=O)N/N=C\c2ccc[nH]2)cc1,"0.112 µM [rising, full curve, poor fit]",–
Cc1nn(Cc2ccc(Cl)cc2)c(C)c1NC(=O)CCCn1nc([N+](=O)[O-])c(Cl)c1C,"29.1 µM [falling, single point]",–
CCn1cc(C(=O)NCc2ccco2)c(=O)c2cc(S(=O)(=O)N3CCCCCC3)ccc21,"8.91 µM [falling, partial curve]",–
O=C(O)c1cc(N/N=C/c2ccc3c(c2)OCCO3)ccc1Cl,"0.651 µM [falling, full curve]",–
O=C1SCC(c2ccccc2)=NN1Cc1ccccc1,"18.4 µM [rising, partial curve]",–
COc1ccc(OCCC(=O)OCC(=O)NC(=O)NC(C)C)cc1,"29.1 µM [rising, single point]",–
CC(C)(C)NC(=O)NC(=O)CSc1ncc(C(F)(F)F)cc1Cl,"0.651 µM [rising, full curve, poor fit]",–
CC(C)C[C@@H]1CN=C(N)N1C[C@@H]1CCCN1C[C@@H](C(C)C)N1C[C@@H](Cc2ccccc2)N(CCCC2CCCC2)C1=N,"5.8 µM [rising, partial curve, poor fit]",–
O=C(O)CCC(=O)c1ccc2c(c1)OCCCO2,"6.31 µM [falling, full curve]",–
O=C(CCC1CCCCC1)NNC(=O)NC12CC3CC(CC(C3)C1)C2,"20.6 µM [falling, single point]",–
C=CC[C@@H](Cc1ccc(F)cc1)C(=O)OC[C@H]1CCCN1C(=O)[C@H](CC=C)CC(=O)N(CCO)Cc1ccccc1,"29.1 µM [falling, single point]",–
Cc1cccc(N=C/C(C(=O)C(F)(F)F)=C(\O)c2ccco2)c1,"1.16 µM [falling, partial curve, poor fit]",–

# A different layout for part of the listing above:
Compound	AC50 [1]	AC50 [2]
O=C(O)C1C2C=CC(C2)C1C(=O)Nc1cccc(C(=O)N2CCCCC2)c1 (configuration not stated)	0.184 µM [falling, full curve, poor fit]	–
C/C(=N\Nc1ccc(F)cc1F)c1cccs1	15.8 µM [rising, single point]	–
Cn1c(=O)c2c(ncn2CCC(=O)N/N=C/c2ccccc2)n(C)c1=O	35.5 µM [rising, single point]	–
O=C(c1ccc(Cl)cc1)C(CN1CCCC1)c1ccccc1 (configuration not stated)	12.6 µM [falling, partial curve]	–
